# Cleaved PARP after 72 h of treatment

Values as published with doi:10.1371/journal.pone.0140310, rounded.

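Human melanoma cells were exposed to a single drug for 72 h in 1,536-well plates and read by automated microscopy after fixing and staining. Values are the share of nuclei positive for cleaved PARP as a percentage of the same share in the DMSO control: 100 is the control level, higher means more apoptosis. Concentrations were fixed for each drug; these are the higher of two levels. The file gives one value for each drug and line, without errors, so small differences may be noise. The marker varies much from line to line, for technical or biological reasons.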 This is part of the screen, not chosen by result.

Drugs:
FH535: Cc1cc([N+](=O)[O-])ccc1NS(=O)(=O)c1cc(Cl)ccc1Cl at 5 µM
PF-04217903: OCCn1cc(-c2cnc3nnn(Cc4ccc5ncccc5c4)c3n2)cn1 at 5 µM
BMS-536924: Cc1cc(N2CCOCC2)cc2[nH]c(-c3c(NC[C@@H](O)c4cccc(Cl)c4)cc[nH]c3=O)nc12 at 1 µM
pioglitazone: CCc1ccc(CCOc2ccc(CC3SC(=O)NC3=O)cc2)nc1 (stereo not given) at 10 µM
temozolomide: Cn1nnc2c(C(N)=O)ncn2c1=O at 10 µM
STA-4783: CN(NC(=O)CC(=O)NN(C)C(=S)c1ccccc1)C(=S)c1ccccc1 at 0.03 µM
NVP-BEZ235: Cn1c(=O)n(-c2ccc(C(C)(C)C#N)cc2)c2c3cc(-c4cnc5ccccc5c4)ccc3ncc21 at 0.02 µM
LFM-A13: C/C(O)=C(\C#N)C(=O)Nc1cc(Br)ccc1Br at 10 µM
bortezomib: CC(C)C[C@H](NC(=O)[C@H](Cc1ccccc1)NC(=O)c1cnccn1)B(O)O at 0.005 µM
veliparib: C[C@]1(c2nc3c(C(N)=O)cccc3[nH]2)CCCN1 at 7 µM
sunitinib: CCN(CC)CCNC(=O)c1c(C)[nH]c(/C=C2\C(=O)Nc3ccc(F)cc32)c1C at 2 µM
palbociclib: CC(=O)c1c(C)c2cnc(Nc3ccc(N4CCNCC4)cn3)nc2n(C2CCCC2)c1=O at 0.2 µM
nilutamide: CC1(C)NC(=O)N(c2ccc([N+](=O)[O-])c(C(F)(F)F)c2)C1=O at 5 µM
ZM336372: Cc1ccc(NC(=O)c2cccc(N(C)C)c2)cc1NC(=O)c1ccc(O)cc1 at 10 µM
perifosine: CCCCCCCCCCCCCCCCCCOP(=O)([O-])OC1CC[N+](C)(C)CC1 at 2 µM
vorinostat: O=C(CCCCCCC(=O)Nc1ccccc1)NO at 0.4 µM
gemcitabine: Nc1ccn([C@@H]2O[C@H](CO)[C@@H](O)C2(F)F)c(=O)n1 at 0.002 µM
SNS-032: CC(C)(C)c1cnc(CSc2cnc(NC(=O)C3CCNCC3)s2)o1 at 0.05 µM
sorafenib: CNC(=O)c1cc(Oc2ccc(NC(=O)Nc3ccc(Cl)c(C(F)(F)F)c3)cc2)ccn1 at 2 µM
lenalidomide: Nc1cccc2c1CN(C1CCC(=O)NC1=O)C2=O (stereo not given) at 5 µM
CHIR-265: Cn1c(Nc2ccc(C(F)(F)F)cc2)nc2cc(Oc3ccnc(-c4ncc(C(F)(F)F)[nH]4)c3)ccc21 at 0.4 µM
cediranib: COc1cc2c(Oc3ccc4[nH]c(C)cc4c3F)ncnc2cc1OCCCN1CCCC1 at 2 µM
tozasertib: Cc1cc(Nc2cc(N3CCN(C)CC3)nc(Sc3ccc(NC(=O)C4CC4)cc3)n2)n[nH]1 at 0.03 µM
ruxolitinib: N#CC[C@H](C1CCCC1)n1cc(-c2ncnc3[nH]ccc23)cn1 at 5 µM
MK-2206: NC1(c2ccc(-c3nc4ccn5c(=O)[nH]nc5c4cc3-c3ccccc3)cc2)CCC1 at 2 µM
OSI-906: C[C@]1(O)C[C@@H](c2nc(-c3ccc4ccc(-c5ccccc5)nc4c3)c3c(N)nccn32)C1 at 2 µM
PF-562271: CN(c1ncccc1CNc1nc(Nc2ccc3c(c2)CC(=O)N3)ncc1C(F)(F)F)S(C)(=O)=O at 0.4 µM
KU-0063794: COc1ccc(-c2ccc3c(N4CCOCC4)nc(N4C[C@@H](C)O[C@@H](C)C4)nc3n2)cc1CO at 0.1 µM
OSU-03012: NCC(=O)Nc1ccc(-n2nc(C(F)(F)F)cc2-c2ccc3c(ccc4ccccc43)c2)cc1 at 5 µM
AZD7762: NC(=O)Nc1cc(-c2cccc(F)c2)sc1C(=O)N[C@H]1CCCNC1 at 0.1 µM
PLX4720: CCCS(=O)(=O)Nc1ccc(F)c(C(=O)c2c[nH]c3ncc(Cl)cc23)c1F at 0.4 µM
cisplatin: N.N.[Cl][Pt][Cl] at 8 µM
decitabine: Nc1ncn([C@H]2C[C@H](O)[C@@H](CO)O2)c(=O)n1 at 0.5 µM
darinaparsin: C[As](C)SC[C@H](NC(=O)CC[C@H](N)C(=O)O)C(=O)NCC(=O)O at 2 µM
BI-D1870: CC(C)CCN1c2nc(Nc3cc(F)c(O)c(F)c3)ncc2N(C)C(=O)C1C (stereo not given) at 1 µM
SU6656: CN(C)S(=O)(=O)c1ccc2c(c1)/C(=C/c1cc3c([nH]1)CCCC3)C(=O)N2 at 2 µM
fludarabine: Nc1nc(F)nc2c1ncn2[C@@H]1O[C@H](CO)[C@@H](O)[C@@H]1O at 1 µM
lapatinib: CS(=O)(=O)CCNCc1ccc(-c2ccc3ncnc(Nc4ccc(OCc5cccc(F)c5)c(Cl)c4)c3c2)o1 at 4 µM
vismodegib: CS(=O)(=O)c1ccc(C(=O)Nc2ccc(Cl)c(-c3ccccn3)c2)c(Cl)c1 at 5 µM

For FH535 the values were WM115: 153; IST-MEL1: 243.
For vorinostat the values were WM115: 143; IST-MEL1: 244.
For sorafenib the values were WM115: 154; IST-MEL1: 325.
For pioglitazone the values were WM115: 106; IST-MEL1: 130.
For BMS-536924 the values were WM115: 42.1; IST-MEL1: 171.
For cisplatin the values were WM115: 182; IST-MEL1: 63.8.
For OSI-906 the values were WM115: 112; IST-MEL1: 140.
For temozolomide the values were WM115: 59.7; IST-MEL1: 67.3.
For OSU-03012 the values were WM115: 110; IST-MEL1: 182.
For nilutamide the values were WM115: 42.6; IST-MEL1: 19.9.
For sunitinib the values were WM115: 354; IST-MEL1: 50.7.
For MK-2206 the values were WM115: 593; IST-MEL1: 110.
For vismodegib the values were WM115: 51.7; IST-MEL1: 46.0.
For PLX4720 the values were WM115: 162; IST-MEL1: 80.8.
For SNS-032 the values were WM115: 115; IST-MEL1: 127.
For PF-04217903 the values were WM115: 48.1; IST-MEL1: 162.
For gemcitabine the values were WM115: 280; IST-MEL1: 362.
For cediranib the values were WM115: 140; IST-MEL1: 44.3.
For LFM-A13 the values were WM115: 62.6; IST-MEL1: 27.8.
For veliparib the values were WM115: 82.0; IST-MEL1: 70.2.
For darinaparsin the values were WM115: 437; IST-MEL1: 278.
For ZM336372 the values were WM115: 173; IST-MEL1: 67.5.
For ruxolitinib the values were WM115: 119; IST-MEL1: 53.7.
For palbociclib the values were WM115: 159; IST-MEL1: 80.6.
For KU-0063794 the values were WM115: 71.9; IST-MEL1: 126.
For fludarabine the values were WM115: 31.7; IST-MEL1: 151.
For BI-D1870 the values were WM115: 131; IST-MEL1: 86.1.
For bortezomib the values were WM115: 351; IST-MEL1: 421.
For perifosine the values were WM115: 164; IST-MEL1: 65.8.
For lenalidomide the values were WM115: 87.8; IST-MEL1: 88.1.
For tozasertib the values were WM115: 183; IST-MEL1: 139.
For PF-562271 the values were WM115: 217; IST-MEL1: 144.
For NVP-BEZ235 the values were WM115: 160; IST-MEL1: 77.6.
For lapatinib the values were WM115: 242; IST-MEL1: 251.
For decitabine the values were WM115: 184; IST-MEL1: 179.
For AZD7762 the values were WM115: 147; IST-MEL1: 54.7.
For SU6656 the values were WM115: 554; IST-MEL1: 107.
For CHIR-265 the values were WM115: 2050; IST-MEL1: 42.1.
For STA-4783 the values were WM115: 2260; IST-MEL1: 204.

Repeated from the top, 4 entries:

Drug	WM115	IST-MEL1
FH535	153	243
vorinostat	143	244
sorafenib	154	325
pioglitazone	106	130